This is a selection; strong and weak results do not stand in their true shares.
What follows are targets tested with COC(=O)C#Cc1ccccc1 [methyl 3-phenylpropiolate] (assay: log2 ratio of iodoacetamide-alkyne labeling of the cysteine site, DMSO over compound (competition); higher = stronger covalent engagement of the cysteine by the compound, active = 1 or more). Conditions: 500 µM; treatment time 1 h; system: HEK293T cell lysate.
Procedure, shortened: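 HEK293T lysate at 2 mg/mL was treated with vehicle or electrophile (500 µM) for 1 h at ambient temperature, then labelled with iodoacetamide alkyne (1 h), clicked to sCIP-TMT reagents, pooled, digested with trypsin overnight at 37 °C, enriched on streptavidin and eluted with acid. Peptides were analysed by Orbitrap Eclipse LC-MS/MS with FAIMS and quantified in FragPipe, using duplicate channels and three replicates, with cysteines quantified in only one replicate excluded. The log2 competition ratio for each cysteine is the mean control-channel reporter intensity divided by the mean compound-channel reporter intensity.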

Amino acid sequences for entries named in this document (tags omitted). A change or cut given only in a name is not applied to a line headed by its entry.
UniProt Q15345: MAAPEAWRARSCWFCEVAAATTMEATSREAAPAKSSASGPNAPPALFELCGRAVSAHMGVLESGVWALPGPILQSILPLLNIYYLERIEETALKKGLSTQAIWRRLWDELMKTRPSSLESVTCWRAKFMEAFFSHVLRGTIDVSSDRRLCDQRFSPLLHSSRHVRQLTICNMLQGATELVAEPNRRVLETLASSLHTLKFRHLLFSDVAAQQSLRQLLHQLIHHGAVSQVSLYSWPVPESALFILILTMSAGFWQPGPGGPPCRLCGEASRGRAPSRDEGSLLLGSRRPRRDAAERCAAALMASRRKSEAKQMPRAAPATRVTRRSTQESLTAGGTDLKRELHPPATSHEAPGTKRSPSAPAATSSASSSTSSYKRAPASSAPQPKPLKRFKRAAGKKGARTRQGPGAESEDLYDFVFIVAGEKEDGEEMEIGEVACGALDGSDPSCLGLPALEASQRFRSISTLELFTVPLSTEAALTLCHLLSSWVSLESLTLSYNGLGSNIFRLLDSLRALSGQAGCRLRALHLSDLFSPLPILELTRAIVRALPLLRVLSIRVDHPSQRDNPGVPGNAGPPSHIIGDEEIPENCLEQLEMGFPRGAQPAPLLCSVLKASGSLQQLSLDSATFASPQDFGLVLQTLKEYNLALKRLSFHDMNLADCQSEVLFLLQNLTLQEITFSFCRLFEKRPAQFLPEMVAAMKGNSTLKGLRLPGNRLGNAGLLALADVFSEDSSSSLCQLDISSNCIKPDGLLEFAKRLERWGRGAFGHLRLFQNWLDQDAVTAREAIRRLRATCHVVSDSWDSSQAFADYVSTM
UniProt Q3KQU3: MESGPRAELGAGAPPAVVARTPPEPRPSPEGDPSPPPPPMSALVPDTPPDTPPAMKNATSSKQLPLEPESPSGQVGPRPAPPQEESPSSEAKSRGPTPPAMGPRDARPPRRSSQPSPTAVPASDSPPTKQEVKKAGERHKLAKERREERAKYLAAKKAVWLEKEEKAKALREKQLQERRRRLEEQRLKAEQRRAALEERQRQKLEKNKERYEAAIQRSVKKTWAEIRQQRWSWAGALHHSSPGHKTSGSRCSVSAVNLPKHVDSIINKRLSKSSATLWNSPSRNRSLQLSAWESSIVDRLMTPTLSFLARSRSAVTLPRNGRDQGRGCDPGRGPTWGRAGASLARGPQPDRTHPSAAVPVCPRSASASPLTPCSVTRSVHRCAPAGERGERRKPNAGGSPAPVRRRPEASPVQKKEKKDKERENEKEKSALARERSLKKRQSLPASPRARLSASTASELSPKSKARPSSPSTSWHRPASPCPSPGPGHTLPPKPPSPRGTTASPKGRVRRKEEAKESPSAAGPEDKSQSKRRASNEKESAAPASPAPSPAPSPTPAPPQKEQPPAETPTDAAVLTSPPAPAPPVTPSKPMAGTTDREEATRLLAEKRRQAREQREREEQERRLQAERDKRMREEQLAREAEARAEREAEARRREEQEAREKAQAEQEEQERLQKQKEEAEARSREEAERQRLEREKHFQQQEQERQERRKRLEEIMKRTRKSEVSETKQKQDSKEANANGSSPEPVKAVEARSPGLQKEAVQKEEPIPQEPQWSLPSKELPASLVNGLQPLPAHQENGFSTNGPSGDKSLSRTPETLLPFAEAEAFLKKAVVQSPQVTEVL
UniProt Q15334: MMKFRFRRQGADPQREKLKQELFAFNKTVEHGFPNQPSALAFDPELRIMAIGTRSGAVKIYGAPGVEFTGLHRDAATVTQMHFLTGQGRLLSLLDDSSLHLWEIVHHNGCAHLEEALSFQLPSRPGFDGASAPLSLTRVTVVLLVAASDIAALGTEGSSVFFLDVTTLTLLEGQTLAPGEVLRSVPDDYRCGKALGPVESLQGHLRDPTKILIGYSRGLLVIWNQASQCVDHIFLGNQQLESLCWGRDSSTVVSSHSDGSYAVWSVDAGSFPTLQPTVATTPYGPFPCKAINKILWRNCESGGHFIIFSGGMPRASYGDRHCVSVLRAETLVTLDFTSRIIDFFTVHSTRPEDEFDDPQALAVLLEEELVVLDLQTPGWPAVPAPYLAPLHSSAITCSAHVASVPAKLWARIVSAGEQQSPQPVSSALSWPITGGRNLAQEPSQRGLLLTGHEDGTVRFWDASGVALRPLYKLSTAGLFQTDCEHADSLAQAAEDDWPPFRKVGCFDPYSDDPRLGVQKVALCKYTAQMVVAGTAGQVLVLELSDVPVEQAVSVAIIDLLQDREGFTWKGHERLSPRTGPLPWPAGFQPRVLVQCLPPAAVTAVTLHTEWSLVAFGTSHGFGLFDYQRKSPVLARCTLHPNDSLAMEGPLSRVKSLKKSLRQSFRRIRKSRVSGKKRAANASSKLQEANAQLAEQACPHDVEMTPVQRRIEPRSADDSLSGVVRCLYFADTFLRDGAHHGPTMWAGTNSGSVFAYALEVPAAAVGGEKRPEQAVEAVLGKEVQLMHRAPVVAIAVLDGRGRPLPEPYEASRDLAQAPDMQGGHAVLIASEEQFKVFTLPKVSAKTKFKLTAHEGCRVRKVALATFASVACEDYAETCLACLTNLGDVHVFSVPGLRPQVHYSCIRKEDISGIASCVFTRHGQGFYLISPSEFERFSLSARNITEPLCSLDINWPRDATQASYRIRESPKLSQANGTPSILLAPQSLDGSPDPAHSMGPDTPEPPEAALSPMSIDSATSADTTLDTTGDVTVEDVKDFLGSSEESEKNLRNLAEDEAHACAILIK
UniProt Q15652: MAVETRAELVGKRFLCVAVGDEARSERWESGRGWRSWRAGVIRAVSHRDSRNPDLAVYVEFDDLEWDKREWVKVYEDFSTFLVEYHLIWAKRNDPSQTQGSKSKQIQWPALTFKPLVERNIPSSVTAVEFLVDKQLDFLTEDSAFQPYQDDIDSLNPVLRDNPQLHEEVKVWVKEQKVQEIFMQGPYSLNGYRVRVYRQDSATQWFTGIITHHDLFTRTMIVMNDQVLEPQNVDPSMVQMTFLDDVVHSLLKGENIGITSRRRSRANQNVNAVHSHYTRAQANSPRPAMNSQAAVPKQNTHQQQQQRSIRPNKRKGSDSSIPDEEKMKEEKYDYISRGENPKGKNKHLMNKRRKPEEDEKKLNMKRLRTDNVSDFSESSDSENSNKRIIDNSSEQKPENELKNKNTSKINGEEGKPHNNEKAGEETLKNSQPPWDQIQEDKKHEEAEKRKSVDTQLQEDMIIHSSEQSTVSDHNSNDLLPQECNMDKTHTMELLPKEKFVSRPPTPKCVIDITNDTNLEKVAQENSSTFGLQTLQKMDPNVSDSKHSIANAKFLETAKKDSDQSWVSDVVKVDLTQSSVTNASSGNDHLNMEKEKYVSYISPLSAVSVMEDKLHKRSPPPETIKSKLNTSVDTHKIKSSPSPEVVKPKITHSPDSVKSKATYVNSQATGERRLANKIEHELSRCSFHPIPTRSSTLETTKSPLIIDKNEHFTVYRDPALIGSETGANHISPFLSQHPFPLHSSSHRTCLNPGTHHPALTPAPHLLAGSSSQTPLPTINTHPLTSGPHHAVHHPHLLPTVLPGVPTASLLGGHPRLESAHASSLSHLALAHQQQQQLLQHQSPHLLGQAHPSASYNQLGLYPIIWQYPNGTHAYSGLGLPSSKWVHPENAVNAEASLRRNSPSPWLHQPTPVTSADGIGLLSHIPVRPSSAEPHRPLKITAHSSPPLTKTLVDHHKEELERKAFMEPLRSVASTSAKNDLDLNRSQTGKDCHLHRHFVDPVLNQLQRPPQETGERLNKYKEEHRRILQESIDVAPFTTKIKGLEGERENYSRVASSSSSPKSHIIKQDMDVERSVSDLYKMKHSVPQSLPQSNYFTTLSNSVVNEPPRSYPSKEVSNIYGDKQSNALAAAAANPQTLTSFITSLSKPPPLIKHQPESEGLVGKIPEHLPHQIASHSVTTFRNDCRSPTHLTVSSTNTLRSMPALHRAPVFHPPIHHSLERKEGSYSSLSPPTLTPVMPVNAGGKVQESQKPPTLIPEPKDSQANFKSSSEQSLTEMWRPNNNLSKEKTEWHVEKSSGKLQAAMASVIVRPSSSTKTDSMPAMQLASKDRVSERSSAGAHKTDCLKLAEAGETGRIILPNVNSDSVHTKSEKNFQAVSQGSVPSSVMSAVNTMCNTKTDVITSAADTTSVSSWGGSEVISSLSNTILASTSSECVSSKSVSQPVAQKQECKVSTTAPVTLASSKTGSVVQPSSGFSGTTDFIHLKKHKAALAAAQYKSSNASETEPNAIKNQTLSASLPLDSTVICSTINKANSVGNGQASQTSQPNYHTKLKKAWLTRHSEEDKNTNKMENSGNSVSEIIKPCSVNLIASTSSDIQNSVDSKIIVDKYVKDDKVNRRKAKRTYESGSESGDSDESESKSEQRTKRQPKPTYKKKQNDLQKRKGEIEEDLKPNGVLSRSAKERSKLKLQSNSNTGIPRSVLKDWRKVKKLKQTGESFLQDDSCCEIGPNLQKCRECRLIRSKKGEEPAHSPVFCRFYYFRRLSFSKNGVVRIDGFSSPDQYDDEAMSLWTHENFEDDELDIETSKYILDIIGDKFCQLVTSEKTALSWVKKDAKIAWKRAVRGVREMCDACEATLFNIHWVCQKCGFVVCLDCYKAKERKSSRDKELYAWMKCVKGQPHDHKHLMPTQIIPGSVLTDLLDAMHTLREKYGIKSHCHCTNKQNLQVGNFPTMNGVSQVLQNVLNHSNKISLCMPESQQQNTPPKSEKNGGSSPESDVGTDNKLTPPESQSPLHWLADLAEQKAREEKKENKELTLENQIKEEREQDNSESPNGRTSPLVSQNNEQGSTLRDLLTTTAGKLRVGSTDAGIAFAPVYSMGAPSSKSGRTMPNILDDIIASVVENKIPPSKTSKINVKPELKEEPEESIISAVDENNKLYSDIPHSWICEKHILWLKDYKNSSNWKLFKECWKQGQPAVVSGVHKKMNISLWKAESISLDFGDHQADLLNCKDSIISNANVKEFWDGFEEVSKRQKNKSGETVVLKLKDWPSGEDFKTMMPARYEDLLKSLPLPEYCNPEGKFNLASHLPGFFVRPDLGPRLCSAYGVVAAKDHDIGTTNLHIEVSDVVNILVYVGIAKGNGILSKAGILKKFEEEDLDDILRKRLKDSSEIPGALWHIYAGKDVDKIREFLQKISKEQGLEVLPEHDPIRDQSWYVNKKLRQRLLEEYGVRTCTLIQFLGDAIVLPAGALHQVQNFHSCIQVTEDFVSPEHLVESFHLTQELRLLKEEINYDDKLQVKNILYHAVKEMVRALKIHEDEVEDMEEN
UniProt Q16527: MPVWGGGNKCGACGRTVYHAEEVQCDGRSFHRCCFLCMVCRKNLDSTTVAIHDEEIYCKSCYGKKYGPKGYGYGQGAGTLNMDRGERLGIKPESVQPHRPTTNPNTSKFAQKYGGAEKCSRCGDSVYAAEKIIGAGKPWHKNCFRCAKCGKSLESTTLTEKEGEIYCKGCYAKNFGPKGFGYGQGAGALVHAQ
UniProt Q15185: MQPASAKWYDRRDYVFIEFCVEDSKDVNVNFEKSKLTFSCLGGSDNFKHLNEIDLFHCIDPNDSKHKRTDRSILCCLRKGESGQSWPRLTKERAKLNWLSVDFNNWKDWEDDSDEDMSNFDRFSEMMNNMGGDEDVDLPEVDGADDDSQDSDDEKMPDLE
UniProt Q15165: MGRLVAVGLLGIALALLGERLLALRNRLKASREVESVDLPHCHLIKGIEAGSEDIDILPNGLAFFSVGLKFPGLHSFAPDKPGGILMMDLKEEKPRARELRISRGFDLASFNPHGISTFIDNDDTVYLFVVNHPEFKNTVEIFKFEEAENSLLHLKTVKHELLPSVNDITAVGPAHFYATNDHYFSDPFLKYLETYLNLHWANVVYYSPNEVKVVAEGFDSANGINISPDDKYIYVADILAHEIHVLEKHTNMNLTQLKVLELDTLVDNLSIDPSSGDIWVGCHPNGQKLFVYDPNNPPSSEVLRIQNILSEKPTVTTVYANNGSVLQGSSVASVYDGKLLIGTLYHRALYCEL
UniProt Q4ZIN3: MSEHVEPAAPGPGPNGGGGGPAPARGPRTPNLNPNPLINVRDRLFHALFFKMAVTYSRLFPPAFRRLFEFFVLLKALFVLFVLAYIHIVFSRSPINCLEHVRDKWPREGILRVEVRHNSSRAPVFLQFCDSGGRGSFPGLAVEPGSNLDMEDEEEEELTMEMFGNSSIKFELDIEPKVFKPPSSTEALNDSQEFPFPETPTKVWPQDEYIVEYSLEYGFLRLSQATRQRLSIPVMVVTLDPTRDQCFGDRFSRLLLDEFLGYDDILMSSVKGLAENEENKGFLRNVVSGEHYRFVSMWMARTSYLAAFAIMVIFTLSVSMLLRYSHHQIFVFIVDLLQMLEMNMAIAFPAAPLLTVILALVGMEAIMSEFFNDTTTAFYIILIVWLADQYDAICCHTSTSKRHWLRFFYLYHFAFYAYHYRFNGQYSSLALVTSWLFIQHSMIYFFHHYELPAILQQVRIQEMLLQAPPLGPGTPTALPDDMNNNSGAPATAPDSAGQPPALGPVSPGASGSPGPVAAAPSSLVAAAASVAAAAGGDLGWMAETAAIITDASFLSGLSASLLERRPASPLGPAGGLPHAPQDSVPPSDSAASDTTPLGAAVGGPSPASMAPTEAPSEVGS

log2 ratio of iodoacetamide-alkyne labeling, inactive:
SF1 C282 (UniProt Q15637) 0.123, LRRC41 C297 (UniProt Q15345) 0.692, ANKRD39 C168 (UniProt Q53RE8) 0.164, MAP7D1 C373 (UniProt Q3KQU3) 0.815, ELAVL1 C13 (UniProt Q15717) 0.328, LLGL1 C725 (UniProt Q15334) -0.031, EFTUD2 C639 (UniProt Q15029) 0.0251, PDS5A C93 (UniProt Q29RF7) -0.0722, WDR43 C9 (UniProt Q15061) 0.216, JMJD1C C508 (UniProt Q15652) 0.554, PDIA6 C190 (UniProt Q15084) 0.226, CSRP2 C58 (UniProt Q16527) 0.175, PTGES3 C40 (UniProt Q15185) -0.00848, GLYR1 C231 (UniProt Q49A26) 0.13, SF3B3 C1156 (UniProt Q15393) 0.0723, UniProt Q15208_C9 0.465, LLGL1 C947 (UniProt Q15334) 0.0729, PTPN14 C1082 (UniProt Q15678) 0.038, PON2 C283 (UniProt Q15165) 0.138, ETFDH C592 (UniProt Q16134) 0.434, UniProt Q4ZIN3_C129 0.182, CSRP2 C122 (UniProt Q16527) 0.0039

From the supplement of paper PMC11006884
